Data taken from the supplement of paper PMC12819154, “High-throughput peptide-centric local stability assay extends protein–ligand identification to membrane proteins, tissues and bacteria” (Nature Structural & Molecular Biology, 2025).
This is one part of the list. Most values lie at the level of the controls, where differences are scatter.

Chains of the proteins cited; added tags and fusions are not shown. Lines headed by an entry give the natural chain unless they say otherwise; changes in a name come on top.
UniProt Q8BWQ1: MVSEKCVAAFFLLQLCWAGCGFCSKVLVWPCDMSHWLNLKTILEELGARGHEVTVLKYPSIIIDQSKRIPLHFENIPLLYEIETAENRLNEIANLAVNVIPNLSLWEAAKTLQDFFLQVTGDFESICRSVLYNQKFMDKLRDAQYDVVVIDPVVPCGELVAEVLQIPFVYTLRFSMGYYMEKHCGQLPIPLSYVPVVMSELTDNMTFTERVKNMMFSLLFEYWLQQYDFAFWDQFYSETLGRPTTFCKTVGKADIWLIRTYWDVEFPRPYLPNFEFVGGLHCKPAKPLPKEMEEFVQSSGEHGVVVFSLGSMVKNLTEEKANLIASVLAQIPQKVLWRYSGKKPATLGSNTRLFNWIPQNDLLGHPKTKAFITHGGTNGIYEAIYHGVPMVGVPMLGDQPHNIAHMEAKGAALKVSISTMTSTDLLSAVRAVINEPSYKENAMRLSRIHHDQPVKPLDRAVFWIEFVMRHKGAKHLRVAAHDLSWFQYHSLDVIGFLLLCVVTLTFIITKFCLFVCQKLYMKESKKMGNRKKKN
UniProt Q8BP27: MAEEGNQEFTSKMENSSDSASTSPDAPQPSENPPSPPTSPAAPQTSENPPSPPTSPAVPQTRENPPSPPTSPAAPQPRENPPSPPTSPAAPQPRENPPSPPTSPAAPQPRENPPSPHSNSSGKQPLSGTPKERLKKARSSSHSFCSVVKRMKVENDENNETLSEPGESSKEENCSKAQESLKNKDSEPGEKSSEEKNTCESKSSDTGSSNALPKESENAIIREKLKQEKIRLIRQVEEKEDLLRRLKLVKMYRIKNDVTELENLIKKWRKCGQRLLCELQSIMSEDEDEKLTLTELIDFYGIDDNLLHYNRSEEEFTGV
UniProt Q8BK08: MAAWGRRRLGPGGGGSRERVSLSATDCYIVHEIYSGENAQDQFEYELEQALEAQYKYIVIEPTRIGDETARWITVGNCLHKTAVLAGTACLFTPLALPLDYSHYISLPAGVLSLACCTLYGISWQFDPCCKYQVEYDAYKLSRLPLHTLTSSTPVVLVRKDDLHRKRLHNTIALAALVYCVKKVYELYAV
UniProt Q8BMI0: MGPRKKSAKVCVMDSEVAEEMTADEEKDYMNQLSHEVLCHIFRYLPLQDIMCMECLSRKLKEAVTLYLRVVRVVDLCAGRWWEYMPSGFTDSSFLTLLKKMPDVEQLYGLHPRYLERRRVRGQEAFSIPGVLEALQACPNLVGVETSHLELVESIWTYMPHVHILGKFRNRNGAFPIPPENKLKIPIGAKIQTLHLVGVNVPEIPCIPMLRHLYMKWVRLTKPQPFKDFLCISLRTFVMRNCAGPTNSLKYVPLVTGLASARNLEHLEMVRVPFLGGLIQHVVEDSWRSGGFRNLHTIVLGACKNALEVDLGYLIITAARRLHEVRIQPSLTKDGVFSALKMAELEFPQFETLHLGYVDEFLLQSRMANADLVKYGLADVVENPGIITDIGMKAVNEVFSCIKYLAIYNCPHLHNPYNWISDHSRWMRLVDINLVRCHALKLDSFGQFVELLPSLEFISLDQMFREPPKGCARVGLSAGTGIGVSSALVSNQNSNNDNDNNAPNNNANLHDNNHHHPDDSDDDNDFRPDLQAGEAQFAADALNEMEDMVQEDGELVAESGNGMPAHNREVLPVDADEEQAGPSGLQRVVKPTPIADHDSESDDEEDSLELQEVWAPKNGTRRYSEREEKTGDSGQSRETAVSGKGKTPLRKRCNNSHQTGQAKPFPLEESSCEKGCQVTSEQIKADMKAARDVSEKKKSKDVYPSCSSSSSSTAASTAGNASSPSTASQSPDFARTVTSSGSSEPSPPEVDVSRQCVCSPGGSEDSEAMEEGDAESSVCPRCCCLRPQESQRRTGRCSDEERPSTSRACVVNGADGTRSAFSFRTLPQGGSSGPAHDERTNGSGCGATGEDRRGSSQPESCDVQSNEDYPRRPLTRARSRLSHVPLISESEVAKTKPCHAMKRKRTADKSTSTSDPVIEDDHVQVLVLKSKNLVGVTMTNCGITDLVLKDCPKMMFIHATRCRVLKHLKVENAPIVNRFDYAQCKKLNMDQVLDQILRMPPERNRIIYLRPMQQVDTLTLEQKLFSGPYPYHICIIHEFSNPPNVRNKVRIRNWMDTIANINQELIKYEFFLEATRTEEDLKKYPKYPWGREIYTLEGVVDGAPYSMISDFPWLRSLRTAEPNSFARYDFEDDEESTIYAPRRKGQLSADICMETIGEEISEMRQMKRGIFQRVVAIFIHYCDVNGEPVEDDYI
UniProt Q8BWW9: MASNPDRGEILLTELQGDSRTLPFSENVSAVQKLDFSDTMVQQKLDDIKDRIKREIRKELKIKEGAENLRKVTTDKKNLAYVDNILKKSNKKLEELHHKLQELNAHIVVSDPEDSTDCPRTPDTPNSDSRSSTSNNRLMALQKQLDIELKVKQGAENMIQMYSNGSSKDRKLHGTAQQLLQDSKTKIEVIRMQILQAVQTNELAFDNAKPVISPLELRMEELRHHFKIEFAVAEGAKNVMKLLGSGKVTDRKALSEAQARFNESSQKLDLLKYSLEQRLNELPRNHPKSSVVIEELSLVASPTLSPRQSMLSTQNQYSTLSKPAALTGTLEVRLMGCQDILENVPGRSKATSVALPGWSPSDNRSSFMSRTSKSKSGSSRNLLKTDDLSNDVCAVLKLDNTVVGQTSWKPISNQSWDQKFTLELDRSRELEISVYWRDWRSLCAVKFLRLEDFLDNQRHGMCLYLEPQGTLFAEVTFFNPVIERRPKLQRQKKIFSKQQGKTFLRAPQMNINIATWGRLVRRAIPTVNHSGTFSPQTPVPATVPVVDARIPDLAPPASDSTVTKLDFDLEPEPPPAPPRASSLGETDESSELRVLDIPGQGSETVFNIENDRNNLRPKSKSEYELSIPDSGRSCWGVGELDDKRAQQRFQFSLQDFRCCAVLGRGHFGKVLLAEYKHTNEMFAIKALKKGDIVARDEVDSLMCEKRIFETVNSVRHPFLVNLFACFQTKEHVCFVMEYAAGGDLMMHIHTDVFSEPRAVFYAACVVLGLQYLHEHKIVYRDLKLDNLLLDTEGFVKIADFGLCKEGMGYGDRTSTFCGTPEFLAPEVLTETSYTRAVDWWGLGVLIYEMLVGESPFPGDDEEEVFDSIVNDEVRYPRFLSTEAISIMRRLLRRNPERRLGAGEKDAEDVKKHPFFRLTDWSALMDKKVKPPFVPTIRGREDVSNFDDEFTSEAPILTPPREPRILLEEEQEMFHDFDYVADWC
UniProt Q8C3X2: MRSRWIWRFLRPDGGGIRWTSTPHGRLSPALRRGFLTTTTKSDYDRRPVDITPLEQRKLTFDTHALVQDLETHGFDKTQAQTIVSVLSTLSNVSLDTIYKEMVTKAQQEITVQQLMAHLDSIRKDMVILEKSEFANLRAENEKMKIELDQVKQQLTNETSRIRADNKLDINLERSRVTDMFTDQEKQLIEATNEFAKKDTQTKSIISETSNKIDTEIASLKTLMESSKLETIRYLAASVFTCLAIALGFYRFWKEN
UniProt Q8BVY0: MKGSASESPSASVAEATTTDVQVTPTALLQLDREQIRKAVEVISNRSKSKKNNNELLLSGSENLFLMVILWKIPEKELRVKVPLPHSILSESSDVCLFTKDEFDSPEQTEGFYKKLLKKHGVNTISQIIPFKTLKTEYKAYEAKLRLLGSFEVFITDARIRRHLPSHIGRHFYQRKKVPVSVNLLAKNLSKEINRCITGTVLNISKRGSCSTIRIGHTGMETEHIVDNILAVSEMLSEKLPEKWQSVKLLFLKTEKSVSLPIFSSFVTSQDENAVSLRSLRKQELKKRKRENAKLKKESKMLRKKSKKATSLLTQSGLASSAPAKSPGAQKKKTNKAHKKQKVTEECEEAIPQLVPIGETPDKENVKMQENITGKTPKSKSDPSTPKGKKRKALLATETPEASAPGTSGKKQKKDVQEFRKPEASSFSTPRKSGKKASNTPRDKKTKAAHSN
UniProt Q8BH69: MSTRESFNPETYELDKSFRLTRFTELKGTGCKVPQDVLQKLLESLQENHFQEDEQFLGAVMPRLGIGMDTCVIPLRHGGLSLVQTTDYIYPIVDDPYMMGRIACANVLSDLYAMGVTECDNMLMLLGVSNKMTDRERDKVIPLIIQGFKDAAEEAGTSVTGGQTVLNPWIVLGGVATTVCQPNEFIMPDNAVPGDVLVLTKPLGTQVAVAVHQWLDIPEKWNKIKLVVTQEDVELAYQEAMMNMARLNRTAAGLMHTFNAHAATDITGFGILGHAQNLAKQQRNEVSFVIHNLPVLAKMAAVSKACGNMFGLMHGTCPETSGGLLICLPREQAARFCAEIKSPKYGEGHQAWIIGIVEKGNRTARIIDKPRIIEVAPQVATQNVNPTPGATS
UniProt Q8BVU5: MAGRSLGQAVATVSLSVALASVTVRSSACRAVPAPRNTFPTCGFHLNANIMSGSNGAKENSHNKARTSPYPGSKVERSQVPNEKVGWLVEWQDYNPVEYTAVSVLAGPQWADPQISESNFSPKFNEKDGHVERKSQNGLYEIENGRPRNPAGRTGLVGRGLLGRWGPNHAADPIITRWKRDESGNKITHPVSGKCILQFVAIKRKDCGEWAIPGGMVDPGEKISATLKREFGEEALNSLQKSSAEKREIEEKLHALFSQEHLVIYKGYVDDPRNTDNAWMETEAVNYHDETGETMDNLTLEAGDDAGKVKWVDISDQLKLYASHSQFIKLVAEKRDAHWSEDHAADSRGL
UniProt Q8CFV4: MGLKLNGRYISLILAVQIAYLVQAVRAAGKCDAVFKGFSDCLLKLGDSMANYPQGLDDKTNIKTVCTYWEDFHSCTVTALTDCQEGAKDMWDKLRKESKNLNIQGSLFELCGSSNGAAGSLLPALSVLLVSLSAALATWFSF
UniProt Q8CG50: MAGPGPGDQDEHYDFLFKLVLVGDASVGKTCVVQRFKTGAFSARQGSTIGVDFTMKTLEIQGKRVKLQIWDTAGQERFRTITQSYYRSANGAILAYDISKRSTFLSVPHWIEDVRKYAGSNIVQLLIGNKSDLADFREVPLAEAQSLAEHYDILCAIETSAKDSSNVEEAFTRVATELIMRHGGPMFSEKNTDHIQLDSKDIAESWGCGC
UniProt Q8C025: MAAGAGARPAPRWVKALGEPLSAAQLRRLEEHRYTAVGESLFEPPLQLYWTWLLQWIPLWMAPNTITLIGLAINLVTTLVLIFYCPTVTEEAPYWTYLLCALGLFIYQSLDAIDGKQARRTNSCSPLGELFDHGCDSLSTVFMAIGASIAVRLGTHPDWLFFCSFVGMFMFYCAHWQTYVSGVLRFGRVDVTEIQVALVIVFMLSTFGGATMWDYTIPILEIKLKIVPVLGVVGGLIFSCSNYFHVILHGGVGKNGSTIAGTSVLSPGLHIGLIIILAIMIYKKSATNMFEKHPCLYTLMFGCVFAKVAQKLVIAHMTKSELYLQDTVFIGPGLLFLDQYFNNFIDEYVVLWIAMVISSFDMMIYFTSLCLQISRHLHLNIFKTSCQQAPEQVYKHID
UniProt Q8BH61: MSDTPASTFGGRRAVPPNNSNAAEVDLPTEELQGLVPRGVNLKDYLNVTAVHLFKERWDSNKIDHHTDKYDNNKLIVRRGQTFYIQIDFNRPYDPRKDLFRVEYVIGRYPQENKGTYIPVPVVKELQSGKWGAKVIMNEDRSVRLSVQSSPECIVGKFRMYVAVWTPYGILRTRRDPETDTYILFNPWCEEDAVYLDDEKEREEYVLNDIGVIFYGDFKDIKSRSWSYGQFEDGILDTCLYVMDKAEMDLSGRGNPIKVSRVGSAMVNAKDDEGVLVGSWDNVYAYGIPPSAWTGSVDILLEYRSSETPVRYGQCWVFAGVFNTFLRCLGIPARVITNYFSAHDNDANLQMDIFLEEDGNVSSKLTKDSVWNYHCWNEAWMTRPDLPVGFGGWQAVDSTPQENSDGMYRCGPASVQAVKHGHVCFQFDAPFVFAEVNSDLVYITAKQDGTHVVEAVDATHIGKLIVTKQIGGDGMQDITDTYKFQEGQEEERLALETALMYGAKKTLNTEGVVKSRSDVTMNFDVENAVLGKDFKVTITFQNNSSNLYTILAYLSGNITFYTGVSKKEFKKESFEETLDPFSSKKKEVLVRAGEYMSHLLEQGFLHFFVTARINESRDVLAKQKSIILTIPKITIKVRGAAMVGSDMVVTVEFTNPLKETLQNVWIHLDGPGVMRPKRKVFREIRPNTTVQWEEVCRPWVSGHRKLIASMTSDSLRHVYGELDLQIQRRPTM
UniProt Q8BSN5: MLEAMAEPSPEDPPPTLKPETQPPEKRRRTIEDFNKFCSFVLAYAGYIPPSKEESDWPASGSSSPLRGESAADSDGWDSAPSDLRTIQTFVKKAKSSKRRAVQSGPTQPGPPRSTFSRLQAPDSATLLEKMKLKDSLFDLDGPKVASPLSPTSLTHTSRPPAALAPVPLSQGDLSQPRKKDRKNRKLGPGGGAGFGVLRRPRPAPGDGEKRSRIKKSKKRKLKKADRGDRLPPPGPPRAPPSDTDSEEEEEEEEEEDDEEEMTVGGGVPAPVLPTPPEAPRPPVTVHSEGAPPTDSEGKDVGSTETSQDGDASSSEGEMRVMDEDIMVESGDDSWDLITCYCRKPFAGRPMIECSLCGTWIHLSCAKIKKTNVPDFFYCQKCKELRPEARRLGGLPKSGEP

compound: CN[C@@H]1C[C@H]2O[C@@](C)([C@@H]1OC)n1c3ccccc3c3c4c(c5c6ccccc6n2c5c31)C(=O)NC4 [staurosporine]; experiment: log2 fold change of pooled soluble protein (PISA), ligand vs vehicle (log2 ratio); higher = more thermally stabilized; settings: ligand concentration: 20 uM; assay format: PISA pool 52.9/55.5/58.6 C

| Target | log2 fold change of pooled soluble protein |
| --- | --- |
| UniProt Q8BMA6 | 0.127 |
| UniProt Q8BWQ1 | 0.124 |
| UniProt Q8BK48 | -0.0165 |
| UniProt Q8BH95 | 0.0512 |
| UniProt Q8BP27 | -0.166 |
| UniProt Q8BK08 | 0.000683 |
| UniProt Q8C163 | 0.00676 |
| UniProt Q8CAK3 | -0.131 |
| UniProt Q8BMI0 | -0.0683 |
| UniProt Q8BGS7 | -0.755 |
| UniProt Q8BX02 | -0.245 |
| UniProt Q8BWW9 | -0.00685 |
| UniProt Q8C3X2 | -0.207 |
| UniProt Q8BIQ5 | 0.146 |
| UniProt Q8BVY0 | -0.294 |
| UniProt Q8C522 | -0.209 |
| UniProt Q8BLF1 | 0.0904 |
| UniProt Q8BH69 | 0.0317 |
| UniProt Q8BVU5 | 0.00727 |

| Target | log2 fold change of pooled soluble protein |
| --- | --- |
| UniProt Q8BLN5 | -0.0486 |
| UniProt Q8BKC5 | 0.0255 |
| Q8C7Q4;Q8VE92 | -0.00992 |
| UniProt Q8CFV4 | -0.0508 |
| UniProt Q8BGT5 | 0.0335 |
| UniProt Q8BIJ7 | -0.0601 |
| UniProt Q8BL66 | -0.0229 |
| UniProt Q8CG50 | 0.173 |
| UniProt Q8CG16 | -0.11 |
| UniProt Q8C025 | -0.144 |
| UniProt Q8BU04 | -0.0823 |
| UniProt Q8BGV0 | 0.181 |
| UniProt Q8CEE7 | 0.0469 |
| UniProt Q8BH61 | -0.0285 |
| UniProt Q8BSN5 | 0.0166 |
| UniProt Q8BJ03 | 0.0569 |
| UniProt Q8C0L6 | 0.294 |
| UniProt Q8BWF0 | 0.0305 |

As a working copy, part of the list above.

| Target | log2 fold change of pooled soluble protein |
| --- | --- |
| UniProt Q8CEE7 | 0.0469 |
| UniProt Q8BH61 | -0.0285 |
| UniProt Q8BSN5 | 0.0166 |
